Measured values published in patent publication US20240290419A1 (KATHOLIEKE UNIVERSITEIT LEUVEN, published 2024).
Results are given in words; binding and its absence hold for the method and conditions named. Some binding calls cover weakened binding; strength is not graded here.

Columns and labels:
S6BE-3HH [1] = test: dialysis to 50 mM Na citrate-citric acid pH 4.0; self-assembly into crystals
S6BE-3HH [2] = test: AFM of 2D arrays on mica, 10:1 Cu(II):protein, 20 mM MES pH 5.6; self-association

binding (S6BE-3HH [1]): binds
binding (S6BE-3HH [2]): binds
B1: S6BE-3HH (protein)
chain: MLIYAVGGYDGNTHLNSVEAYDPERNEWSLVAPLSTRRSGVGVAVLNGLIYAVGGYDGNTHLNSVEAYDPHHNEWSLVAPLSTRRSGVGVAVLNGLIYAVGGYDGNTHLNSVEAYDPERNEWSLVAPLSTRRSGVGVAVLNGLIYAVGGYDGNTHLNSVEAYDPHHNEWSLVAPLSTRRSGVGVAVLNGLIYAVGGYDGNTHLNSVEAYDPERNEWSLVAPLSTRRSGVGVAVLNGLIYAVGGYDGNTHLNSVEAYDPHHNEWSLVAPLSTRRSGVGVAVLNG
